Literature values in patent US5532227A, “Tetracyclines including non-antimicrobial chemically-modified tetracyclines inhibit excessive glycosylation of different types of collagen and other proteins during diabetes” (The Research Foundation of State University of New York, priority 1994, dated 1996).
At least one compound was matched to its structure with a doubt left.

Details: cited from earlier work

CC1(O)c2cccc(O)c2C(=O)C2=C(O)C3(O)C(=O)C(C(N)=O)=C(O)CC3CC21 (stereo not shown) [CMT-1, 4-dedimethylaminotetracycline]
antimicrobial activity: non-antimicrobial
